Paper PMC8745740
No constants are given. Whether binding was seen depends on the method and setting. Binding seen in cells or lysates may run through a third protein. Binding can be weak; no strength is given. Tags and fused reporters may be left off the sequences shown.

Target: T1, HopAU1-GFP fusion protein (Pseudomonas syringae pv. actinidiae strain M228) (UniProt G9I6Y2)
T1 sequence: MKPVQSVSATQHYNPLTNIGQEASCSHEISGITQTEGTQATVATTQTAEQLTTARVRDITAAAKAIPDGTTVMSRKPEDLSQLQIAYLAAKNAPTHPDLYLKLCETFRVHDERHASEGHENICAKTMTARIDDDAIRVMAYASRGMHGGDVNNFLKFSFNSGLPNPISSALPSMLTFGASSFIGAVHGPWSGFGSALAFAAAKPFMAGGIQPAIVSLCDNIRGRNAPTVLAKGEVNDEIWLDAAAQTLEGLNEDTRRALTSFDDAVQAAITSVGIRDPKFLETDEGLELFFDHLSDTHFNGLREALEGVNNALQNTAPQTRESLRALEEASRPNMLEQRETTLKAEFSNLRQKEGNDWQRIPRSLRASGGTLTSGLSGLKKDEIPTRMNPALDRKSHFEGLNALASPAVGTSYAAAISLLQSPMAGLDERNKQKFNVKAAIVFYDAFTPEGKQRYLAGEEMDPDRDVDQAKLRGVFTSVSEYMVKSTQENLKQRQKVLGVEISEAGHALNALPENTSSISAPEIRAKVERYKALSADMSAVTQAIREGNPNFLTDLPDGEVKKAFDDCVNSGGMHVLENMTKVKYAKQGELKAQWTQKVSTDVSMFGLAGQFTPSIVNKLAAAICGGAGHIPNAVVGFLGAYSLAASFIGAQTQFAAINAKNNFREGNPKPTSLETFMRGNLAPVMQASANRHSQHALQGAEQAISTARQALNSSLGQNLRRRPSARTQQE
Experiment: co-IP; HopAU1-GFP and CaS-mCherry transiently co-expressed in N. benthamiana, total protein extracted after 2 days; incubated with anti-GFP magnetic beads (GFP-Trap, ChromoTek) for 2 h at 4 °C; western blot with anti-GFP and anti-mCherry

Substance: AcCaS (homologue of the calcium sensing receptor in kiwifruit)
- binding: binds
